Test results: patent US20020137662A1
Results are given in words; binding and its absence hold for the method and conditions named. In cells and extracts the contact can be indirect. Some results given as binding are weak or reduced against the parent protein; the word gives no strength.

Amino acid sequences for entries named in this document (tags omitted). A change or cut given only in a name is not applied to a line headed by its entry. Chains listed by the source or under a name are the forms on record and can include a tag or linker.
UniProt P42003: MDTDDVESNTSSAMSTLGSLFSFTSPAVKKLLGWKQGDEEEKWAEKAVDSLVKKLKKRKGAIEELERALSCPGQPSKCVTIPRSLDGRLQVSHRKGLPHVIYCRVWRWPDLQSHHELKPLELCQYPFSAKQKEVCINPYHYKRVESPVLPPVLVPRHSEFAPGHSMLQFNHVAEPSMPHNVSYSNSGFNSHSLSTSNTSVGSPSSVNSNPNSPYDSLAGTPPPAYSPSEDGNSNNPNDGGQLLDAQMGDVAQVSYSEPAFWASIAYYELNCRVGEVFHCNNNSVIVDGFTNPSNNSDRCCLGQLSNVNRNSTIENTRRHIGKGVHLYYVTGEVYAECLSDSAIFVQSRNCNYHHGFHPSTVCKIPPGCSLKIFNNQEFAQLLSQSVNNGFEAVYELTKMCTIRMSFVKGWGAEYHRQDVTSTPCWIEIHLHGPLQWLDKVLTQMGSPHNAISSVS
GST-dCtBP (O46036, form named): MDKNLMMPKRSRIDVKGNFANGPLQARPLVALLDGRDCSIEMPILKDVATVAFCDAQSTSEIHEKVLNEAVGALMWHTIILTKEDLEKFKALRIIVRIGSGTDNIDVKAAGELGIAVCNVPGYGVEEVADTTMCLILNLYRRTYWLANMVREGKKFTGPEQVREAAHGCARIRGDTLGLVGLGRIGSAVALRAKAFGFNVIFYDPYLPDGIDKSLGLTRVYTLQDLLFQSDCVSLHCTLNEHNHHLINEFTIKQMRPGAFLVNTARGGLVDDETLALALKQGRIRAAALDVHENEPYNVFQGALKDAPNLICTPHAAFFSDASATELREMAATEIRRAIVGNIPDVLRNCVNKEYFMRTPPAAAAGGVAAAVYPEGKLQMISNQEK

Columns and labels:
[1] = biological target: Mad (MadNLC, full length protein) (Drosophila) (UniProt P42003); experiment: GST pull-down (FIG. 1 legend)
Knirps = biological target: T1, Knirps (UniProt P10734); experiment: GST pull-down, radiolabeled protein on GST-dCtBP beads
T1 sequence (radiolabeled (synthesized in a coupled in vitro system), looked up): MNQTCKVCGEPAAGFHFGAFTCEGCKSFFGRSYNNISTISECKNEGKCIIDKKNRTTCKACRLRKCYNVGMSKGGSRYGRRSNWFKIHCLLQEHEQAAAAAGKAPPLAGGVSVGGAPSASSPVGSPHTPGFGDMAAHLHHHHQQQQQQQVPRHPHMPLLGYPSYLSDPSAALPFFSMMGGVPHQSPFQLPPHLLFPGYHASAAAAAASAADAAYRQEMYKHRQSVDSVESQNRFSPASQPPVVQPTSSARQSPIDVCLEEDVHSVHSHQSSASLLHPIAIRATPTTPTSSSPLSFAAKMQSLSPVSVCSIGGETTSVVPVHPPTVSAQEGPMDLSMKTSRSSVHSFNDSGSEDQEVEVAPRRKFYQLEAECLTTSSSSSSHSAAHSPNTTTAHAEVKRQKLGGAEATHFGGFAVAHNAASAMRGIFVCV

[2] = biological target: Mad (MadNLC, full length protein) (Drosophila) (UniProt P42003); experiment: GST pull-down, radiolabeled in vitro translated protein on GST-dCtBP beads
[3] = biological target: Mad (MadNLC, full length protein) (Drosophila) (UniProt P42003); experiment: summary of the GST pull-down finding

Measured: binding

GST-dCtBP (from UniProt O46036 1-386)
binds: [1] | Knirps | [2] | [3]
